Measurements from US20080161249A1, “Use of Novel Antibacterial Compounds” (SMITHKLINE BEECHAM CORPORATION, priority 2004, published 2008).
Some of these results come from one statement about several compounds together.

Test system: H. influenzae Q1
Assay: MIC against H. influenzae Q1, alone and with subinhibitory concentrations of a second agent;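 further: combinations paired PDF inhibitors with macrolides, one class added below its own MIC to test whether the MIC of the other class dropped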
Format: cell-based, Haemophilus influenzae
Conditions: text summary of Example 7

CC[C@H]1OC(=O)[C@H](C)[C@@H](O[C@H]2C[C@@](C)(OC)[C@@H](O)[C@H](C)O2)[C@H](C)[C@@H](O[C@@H]2O[C@H](C)C[C@H](N(C)C)[C@H]2O)[C@](C)(O)C[C@@H](C)CN(C)[C@H](C)[C@@H](O)[C@]1(C)O [Azithromycin, azithromycin] was tested, and the “decrease of MIC by subinhibitory concentrations of Compound (1a)” value was 4-8 fold.
CC[C@H]1OC(=O)[C@H](C)[C@@H](O[C@H]2C[C@@](C)(OC)[C@@H](O)[C@H](C)O2)[C@H](C)[C@@H](O[C@@H]2O[C@H](C)C[C@H](N(C)C)[C@H]2O)[C@](C)(O)C[C@@H](C)C(=O)[C@H](C)[C@@H](O)[C@]1(C)O [Erythromycin, erythromycin] was tested, and the “decrease of MIC by subinhibitory concentrations of Compound (1a)” value was 4-8 fold.
